No constants are given. Whether binding was seen depends on the method and setting. A result given as binding can be weak or reduced; the word gives no strength. Sequences can lack the tags named with a protein.
What was measured:
[1] = target: collagen type IV (collagen IV coated 96 well-plates, Corning); experiment: closing sentence of the example on its collagen binding assay
[2] = target: collagen type I (collagen I coated 96 well-plates, Gibco); experiment: as above

| Binder | binding [1] | binding [2] |
| --- | --- | --- |
| Lumican-MSA-Fc-III-4C (protein) QYYDYDIPLFMYGQISPNCAPECNCPHSYPTAMYCDDLKLKSVPMVPPGIKYLYLRNNQIDHIDEKAFENVTDLQWLILDHNLLENSKIKGKVFSKLKQLKKLHINYNNLTESVGPLPKSLQDLQLTNNKISKLGSFDGLVNLTFIYLQHNQLKEDAVSASLKGLKSLEYLDLSFNQMSKLPAGLPTSLLTLYLDNNKISNIPDEYFKRFTGLQYLRLSHNELADSGVPGNSFNISSLLELDLSYNKLKSIPTVNENLENYYLEVNELEKFDVKSFCKILGPLSYSKIKHLRLDGNPLTQSSLPPDMYECLRVANEITVNGGGSGGGSEAHKSEIAHRYNDLGEQHFKGLVLIAFSQYLQKCSYDEHAKLVQEVTDFAKTCVADESAANCDKSLHTLFGDKLCAIPNLRENYGELADCCTKQEPERNECFLQHKDDNPSLPPFERPEAEAMCTSFKENPTTFMGHYLHEVARRHPYFYAPELLYYAEQYNEILTQCCAEADKESCLTPKLDGVKEKALVSSVRQRMKCSSMQKFGERAFKAWAVARLSQTFPNADFAEITKLATDLTKVNKECCHGDLLECADDRAELAKYMCENQATISSKLQTCCDKPLLKKAHCLSEVEHDTMPADLPAIAADFVEDQEVCKNYAEAKDVFLGTFLYEYSRRHPDYSVSLLLRLAKKYEATLEKCCAEANPPACYGTVLAEFQPLVEEPKNLVKTNCDLYEKLGEYGFQNAILVRYTQKAPQVSTPTLVEAARNLGRVGTKCCTLPEDQRLPCVEDYLSAILNRVCLLHEKTPVSEHVTKCCSGSLVERRPCFSALTVDETYVPKEFKAETFTFHSDICTLPEKEKQIKKQTALAELVKHKPKATAEQLKTVMDDFAQFLDTCCKAADKDTCFSTEGPNLVTRCKDALAGGGSCDCAWHLGELVWCTCHHHHHH | binds | binds |
| RRGW-MSA-Lumican (protein) QYYDYDIPLFMYGQISPNCAPECNCPHSYPTAMYCDDLKLKSVPMVPPGIKYLYLRNNQIDHIDEKAFENVTDLQWLILDHNLLENSKIKGKVFSKLKQLKKLHINYNNLTESVGPLPKSLQDLQLTNNKISKLGSFDGLVNLTFIYLQHNQLKEDAVSASLKGLKSLEYLDLSFNQMSKLPAGLPTSLLTLYLDNNKISNIPDEYFKRFTGLQYLRLSHNELADSGVPGNSFNISSLLELDLSYNKLKSIPTVNENLENYYLEVNELEKFDVKSFCKILGPLSYSKIKHLRLDGNPLTQSSLPPDMYECLRVANEITVNGGGSGGGSEAHKSEIAHRYNDLGEQHFKGLVLIAFSQYLQKCSYDEHAKLVQEVTDFAKTCVADESAANCDKSLHTLFGDKLCAIPNLRENYGELADCCTKQEPERNECFLQHKDDNPSLPPFERPEAEAMCTSFKENPTTFMGHYLHEVARRHPYFYAPELLYYAEQYNEILTQCCAEADKESCLTPKLDGVKEKALVSSVRQRMKCSSMQKFGERAFKAWAVARLSQTFPNADFAEITKLATDLTKVNKECCHGDLLECADDRAELAKYMCENQATISSKLQTCCDKPLLKKAHCLSEVEHDTMPADLPAIAADFVEDQEVCKNYAEAKDVFLGTFLYEYSRRHPDYSVSLLLRLAKKYEATLEKCCAEANPPACYGTVLAEFQPLVEEPKNLVKTNCDLYEKLGEYGFQNAILVRYTQKAPQVSTPTLVEAARNLGRVGTKCCTLPEDQRLPCVEDYLSAILNRVCLLHEKTPVSEHVTKCCSGSLVERRPCFSALTVDETYVPKEFKAETFTFHSDICTLPEKEKQIKKQTALAELVKHKPKATAEQLKTVMDDFAQFLDTCCKAADKDTCFSTEGPNLVTRCKDALAGGGSRRGWHHHHHH | binds | binds |

Second part, the binder after the results:

| binding [1] | binding [2] | Binder |
| --- | --- | --- |
| binds | binds | Sso7d-MSA-Lumican (protein) ATVKFKYKGEEKQVDISKIYLVLRLGKFIYFYYDLGGGKLGLGHVSEKDAPKELLQMLEKQKKGGGSEAHKSEIAHRYNDLGEQHFKGLVLIAFSQYLQKCSYDEHAKLVQEVTDFAKTCVADESAANCDKSLHTLFGDKLCAIPNLRENYGELADCCTKQEPERNECFLQHKDDNPSLPPFERPEAEAMCTSFKENPTTFMGHYLHEVARRHPYFYAPELLYYAEQYNEILTQCCAEADKESCLTPKLDGVKEKALVSSVRQRMKCSSMQKFGERAFKAWAVARLSQTFPNADFAEITKLATDLTKVNKECCHGDLLECADDRAELAKYMCENQATISSKLQTCCDKPLLKKAHCLSEVEHDTMPADLPAIAADFVEDQEVCKNYAEAKDVFLGTFLYEYSRRHPDYSVSLLLRLAKKYEATLEKCCAEANPPACYGTVLAEFQPLVEEPKNLVKTNCDLYEKLGEYGFQNAILVRYTQKAPQVSTPTLVEAARNLGRVGTKCCTLPEDQRLPCVEDYLSAILNRVCLLHEKTPVSEHVTKCCSGSLVERRPCFSALTVDETYVPKEFKAETFTFHSDICTLPEKEKQIKKQTALAELVKHKPKATAEQLKTVMDDFAQFLDTCCKAADKDTCFSTEGPNLVTRCKDALAGGGSGGGSQYYDYDIPLFMYGQISPNCAPECNCPHSYPTAMYCDDLKLKSVPMVPPGIKYLYLRNNQIDHIDEKAFENVTDLQWLILDHNLLENSKIKGKVFSKLKQLKKLHINYNNLTESVGPLPKSLQDLQLTNNKISKLGSFDGLVNLTFIYLQHNQLKEDAVSASLKGLKSLEYLDLSFNQMSKLPAGLPTSLLTLYLDNNKISNIPDEYFKRFTGLQYLRLSHNELADSGVPGNSFNISSLLELDLSYNKLKSIPTVNENLENYYLEVNELEKFDVKSFCKILGPLSYSKIKHLRLDGNPLTQSSLPPDMYECLRVANEITVNGGGSHHHHHH |
| binds | binds | WGRR-MSA-Lumican (protein) QYYDYDIPLFMYGQISPNCAPECNCPHSYPTAMYCDDLKLKSVPMVPPGIKYLYLRNNQIDHIDEKAFENVTDLQWLILDHNLLENSKIKGKVFSKLKQLKKLHINYNNLTESVGPLPKSLQDLQLTNNKISKLGSFDGLVNLTFIYLQHNQLKEDAVSASLKGLKSLEYLDLSFNQMSKLPAGLPTSLLTLYLDNNKISNIPDEYFKRFTGLQYLRLSHNELADSGVPGNSFNISSLLELDLSYNKLKSIPTVNENLENYYLEVNELEKFDVKSFCKILGPLSYSKIKHLRLDGNPLTQSSLPPDMYECLRVANEITVNGGGSGGGSEAHKSEIAHRYNDLGEQHFKGLVLIAFSQYLQKCSYDEHAKLVQEVTDFAKTCVADESAANCDKSLHTLFGDKLCAIPNLRENYGELADCCTKQEPERNECFLQHKDDNPSLPPFERPEAEAMCTSFKENPTTFMGHYLHEVARRHPYFYAPELLYYAEQYNEILTQCCAEADKESCLTPKLDGVKEKALVSSVRQRMKCSSMQKFGERAFKAWAVARLSQTFPNADFAEITKLATDLTKVNKECCHGDLLECADDRAELAKYMCENQATISSKLQTCCDKPLLKKAHCLSEVEHDTMPADLPAIAADFVEDQEVCKNYAEAKDVFLGTFLYEYSRRHPDYSVSLLLRLAKKYEATLEKCCAEANPPACYGTVLAEFQPLVEEPKNLVKTNCDLYEKLGEYGFQNAILVRYTQKAPQVSTPTLVEAARNLGRVGTKCCTLPEDQRLPCVEDYLSAILNRVCLLHEKTPVSEHVTKCCSGSLVERRPCFSALTVDETYVPKEFKAETFTFHSDICTLPEKEKQIKKQTALAELVKHKPKATAEQLKTVMDDFAQFLDTCCKAADKDTCFSTEGPNLVTRCKDALAGGGSWGRRHHHHHH |

Source: US20230174623A1
